According to PubChem BioAssay AID504834 (National Center for Advancing Translational Sciences (NCATS), 2011):
Out of some 320,000 compounds screened, about 22,000 (6.9%) were called active. Inconclusive results, whose numbers are uncertain, are shown with a selection of clear calls. Calls come from the whole dose curve; as a rule, active = well fitted inhibition curve with a large enough effect; inconclusive = small, poorly fitted or top-dose-only effect, or another doubt; inactive = no such curve, though single readings can be large or run the other way. Where the call is inconclusive, the potency comes from a doubtful curve fit.

assay: Primary qHTS for delayed death inhibitors of the malarial parasite plastid, 96 hour incubation; details: P. falciparum luciferase reporter growth; series mostly up to 28.7 µM
In short: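 Two parasite generations (96 h, 37 C, 5% CO2) of compound exposure in infected erythrocytes (0.05% parasitemia, 2% hematocrit). Luciferase-reporter P. falciparum; decreased luminescence indicates inhibited growth, aimed at apicoplast-acting delayed death.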
Potency is the fitted concentration of half-maximal effect.

SMILES | Potency
CC1CCC(NC(=O)c2ccc(COc3ccccc3)o2)CC1 (stereo not drawn) | inconclusive: 18.5 µM [inhibitor, single point]
CCCc1nc2c(s1)CCc1onc(-c3ccc(Cl)cc3)c1-2 | inconclusive: 11.7 µM [inhibitor, single point]
COc1ccc(NC(=O)CCN2CCN(S(=O)(=O)c3ccc(C(C)C)cc3)CC2)cc1 | inconclusive: 11.7 µM [inhibitor, partial curve, poor fit]
COc1c(C)cc(C(=O)C2CCCN(C(=O)c3cccc(F)c3)C2)cc1C (stereo not drawn) | inconclusive: 18.5 µM [inhibitor, single point]
COc1ccccc1C(=O)NCCC(=O)N1CCN(c2ccccc2O)CC1 | inconclusive: 10.4 µM [inhibitor, single point]
COc1ccccc1OCC(=O)N/N=C1/C=C(C)CC1 | inconclusive: 11.7 µM [inhibitor, single point]
CN(Cc1ccco1)S(=O)(=O)c1csc(C(N)=O)c1 | inactive
CCN(CC)c1ccc(NC(=O)CSc2nc3ccccc3c(=O)n2-c2cc(S(=O)(=O)N(C)C)ccc2C)cc1 | inconclusive: 5.22 µM [inhibitor, partial curve, poor fit]
CC(C)Cc1nc(SCC(=O)NCc2ccccc2)n[nH]1 | inconclusive: 10.4 µM [inhibitor, single point]
Cc1ccc(-n2c(SCC(=O)N3CC(=O)Nc4ccccc43)nc3ccccc3c2=O)cc1 | inconclusive: 3.29 µM [inhibitor, full curve, poor fit]
CN(c1ccccc1)S(=O)(=O)c1ccc(NC(=O)c2ccccc2)cc1 | inactive
COc1ccc(-c2c(=O)n(OCc3ccccc3[N+](=O)[O-])c3ccccc3[n+]2[O-])c(OC)c1 | inactive
CN(C)c1ccc(/C=N/NC(=O)c2ccccc2O)o1 | inconclusive: 11.7 µM [inhibitor, single point]
CN(C[C@@H](CC1CCCCC1)N(C[C@H](Cc1ccccc1)N(CCc1ccccc1)N=O)N=O)N=O | active: 11.7 µM
CC(C)(C)N1CC(C(=O)Nc2ccc(S(N)(=O)=O)cc2)CC1=O (stereo not drawn) | inactive
O=C1NC(=S)N/C1=C/c1cccn1-c1ccc([N+](=O)[O-])cc1 | inactive
Cc1ccc(NC(=S)Nc2cccc(S(=O)(=O)Nc3c(C)n(C)n(-c4ccccc4)c3=O)c2)cc1 | inactive
COc1ccc(C)cc1S(=O)(=O)N(CC(=O)Nc1ccc2c(c1)OCCO2)Cc1ccccc1 | inconclusive: 6.57 µM [inhibitor, partial curve, poor fit]

Looked up above.
`COc1c(C)cc(C(=O)C2CCCN(C(=O)c3cccc(F)c3)C2)cc1C` (stereo not drawn) – Potency: inconclusive: 18.5 µM [inhibitor, single point]
`Cc1ccc(-n2c(SCC(=O)N3CC(=O)Nc4ccccc43)nc3ccccc3c2=O)cc1` – Potency: inconclusive: 3.29 µM [inhibitor, full curve, poor fit]
